PubChem BioAssay AID1671195 | Yale University, 2021

Screen: 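Genes whose knockdown alters LDL uptake in liver cancer cells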 (primary screen)
Cell system: human Huh7 hepatoma cells
Knock-down reagent: siRNA pool against human genes, 18 nM
Time to read-out: about 2 to 2.5 days of knockdown, then 8 h LDL uptake
Treatment: DiI-labelled LDL at 30 µg/ml for 8 h, in lipoprotein-deficient serum medium
Detection: 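Per-cell DiI-LDL intensity by automated imaging; well means scaled to the plate median and given as a robust z-score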
Direction: robust z-score: higher = more LDL uptake after knockdown
Call rule: 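a gene counts as active if at least two replicate z-scores exceed ±2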
This is one part, drawn at random, of about 22,000 reagents. About 1,510 of them (6.9%) count as active. 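Active includes knockdowns raising or lowering LDL uptake; positive z-scores mean more uptake, negative mean less.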 A number with no mark means an inactive call.

| gene | robust z-score, replicate 1 | robust z-score, replicate 2 | robust z-score, replicate 3 |
| --- | --- | --- | --- |
| RPL22L1 | 0.874 | 0.502 | 0.244 |
| RMI1 | 0.118 | 0.143 | 0.122 |
| NOP2 | -0.85 | -0.275 | -0.988 |
| CDKN3 | 0.499 | 1.29 | 0.905 |
| WDR3 | 0.24 | 0.787 | 0.326 |
| GRAMD2A | 0.0706 | 0.21 | -0.411 |
| AKIRIN2 | -0.724 | 0.941 | -0.307 |
| OR10AG1 | -1.43 | -1.19 | -1.21 |
| TBC1D7 | 1.56 | 0.262 | 1.43 |
| TAAR8 | 1.57 | 0.887 | 1.3 |
| UTP18 | 0.376 | -0.122 | 0.915 |
| LOC390358 | 0.838 | 0.785 | 0.628 |
| TPD52L2 | -0.289 | 0.523 | 0.355 |
| KRTAP15-1 | -0.575 | -0.277 | -0.6 |
| SPINK7 | -0.093 | 0.303 | -0.61 |
| MTERF3 | -1.72 | -0.206 | -0.356 |
| HSPG2 | 0.723 | 0.672 | 0.83 |
| XYLT2 | -2 (active) | -2.16 | -1.96 |
| EMC3 | -0.29 | -2.18 | -0.571 |
| NEXN-AS1 | -1.45 | -0.736 | -1.14 |
| GRAMD4 | -1.49 | -0.307 | -1.2 |
| SPIDR | 1.63 | 1.4 | 2.91 |
| XAGE2 | -0.244 | 0.553 | -0.294 |
| KRTAP10-4 | 0.145 | 0.156 | -0.359 |
| SOFU1 | 0.0215 | -0.338 | 0.0195 |
| WSCD1 | 0.256 | 1.55 | 0.741 |
| ME3 | -0.461 | -0.267 | -0.815 |
| UQCRQ | 0.733 | -1.13 | 0.941 |
| LOC391444 (retired record) | 0.517 | 0.669 | 0.531 |
| AMELX | -0.361 | -1.76 | -1.36 |
| CGA | -1.15 | -0.777 | -0.469 |
| SPX | -0.503 | -0.411 | -0.366 |
| LOC149329 (retired record) | 0.207 | -0.135 | -0.556 |
| S100A9 | -0.387 | -0.414 | -0.271 |
| PCDHGA5 | -0.454 | -0.171 | -0.522 |
| SFT2D1 | 0.0513 | 1.15 | 0.662 |
| LOC440337 (retired record) | -0.842 | -0.715 | -0.854 |
| STEEP1 | -0.24 | -0.568 | -0.228 |
| NUPR1 | -0.718 | -0.672 | -0.327 |
| SLC7A5 | 0.619 | 0.701 | 1.13 |
| ALKAL1 | -0.106 | -0.0616 | -0.217 |
| ENPP2 | 0.277 | 0.331 | 0.121 |
| SOCS7 | 0.874 | 1.58 | -0.843 |
| TMCO2 | 0.837 | -0.843 | -0.507 |
| A3GALT2 | -1.55 | -0.827 | -1.49 |
| PTGR2 | -1.18 | -1.29 | -1.14 |
| MXD4 | -0.45 | -0.359 | -0.091 |
| HTR2A | -0.0854 | -0.0617 | -0.185 |
| IL6ST | -1.07 | -3.53 | -0.977 |

Reprinted from above, 4 entries:
| gene | robust z-score, replicate 1 | robust z-score, replicate 2 | robust z-score, replicate 3 |
| --- | --- | --- | --- |
| SPX | -0.503 | -0.411 | -0.366 |
| LOC149329 (retired record) | 0.207 | -0.135 | -0.556 |
| S100A9 | -0.387 | -0.414 | -0.271 |
| PCDHGA5 | -0.454 | -0.171 | -0.522 |

The results go on.
| gene | robust z-score, replicate 1 | robust z-score, replicate 2 | robust z-score, replicate 3 |
| --- | --- | --- | --- |
| PAXIP1 | -1.71 | -0.334 | -2.03 |
| ACTN2 | 1.2 | 1.74 | 0.518 |
| OTUD6A | -0.426 | -0.0461 | -0.378 |
| OR10A7 | -0.516 | -0.844 | -1.52 |
| LOC440451 (retired record) | -0.267 | 0.0769 | -0.00267 |
| STARD5 | 0.195 | 1.09 | -0.689 |
| NRG1 | 1.29 | -0.997 | 0.333 |
| HEXB | 1.52 | 1.81 | 1.53 |
| RPS2P27 | 0.466 | 0.475 | 0.11 |
| BID | -1.09 | -0.927 | -1.04 |
| LOC442456 (retired record) | -0.609 | -0.0579 | 0.272 |
| ADRA1D | -0.337 | -1.01 | -1.06 |
| PFN4 | 0.157 | 0.257 | 0.374 |
| LOC389230 (retired record) | -0.743 | -0.261 | -0.436 |
| OR51A7 | -0.176 | -0.416 | 0.00453 |
| AASS | 0.0337 | 0.746 | 0.882 |
| POLR2H | 0.98 | 0.865 | 0.557 |
| CYP3A43 | 1.2 | 1.28 | 2.28 |
| MGAT4B | -0.0332 | -0.722 | -0.165 |
| ZNF222 | -0.531 | -0.357 | -0.656 |
| H1-2 | 0.602 | 1.1 | 1.49 |
| CCDC97 | -0.177 | 0.404 | 0.185 |
| SLIRP | -0.235 | -0.427 | -0.887 |
| LOC441337 (retired record) | 2.55 | 1.97 | 1.76 |
| AQP2 | -0.708 | -0.811 | -0.801 |
| LOC440967 (retired record) | -0.859 | -0.47 | -0.39 |
| LRRC4B | -1.22 | -1 | -0.492 |
| ANKDD1B | 2.64 | 1.35 | 1.7 |
| FOXI2 | -1.11 | -1.37 | -1.25 |
| MSRB1 | -1.06 | -1.78 | -1.13 |
| LOC442275 (retired record) | 1.25 | -0.14 | 0.575 |
| C11orf71 | -0.478 | -0.432 | -0.307 |
| RORB | -0.472 | -1.02 | -0.122 |
| CYP4V2 | -0.141 | 0.161 | 0.796 |
| OR14I1 | 2.28 (active) | 2.08 | 3.73 |
| LOC388205 (retired record) | 0.351 | 0.821 | 0.315 |
| IDO1 | -0.332 | 0.127 | -0.0638 |
| DSCR9 | 0.992 | 1.38 | 1.23 |
